Data as given in paper doi:10.1101/2020.09.10.287607 (bioRxiv, 2020).
Results are given in words; binding and its absence hold for the method and conditions named. Binding calls can cover weak binding; strength is not graded here.

By UniProt entry, the sequences of proteins in these tests, tags left out. Where a name states a change or a piece, a line headed by the entry shows the natural chain unless it says otherwise.
UniProt Q6UXX9: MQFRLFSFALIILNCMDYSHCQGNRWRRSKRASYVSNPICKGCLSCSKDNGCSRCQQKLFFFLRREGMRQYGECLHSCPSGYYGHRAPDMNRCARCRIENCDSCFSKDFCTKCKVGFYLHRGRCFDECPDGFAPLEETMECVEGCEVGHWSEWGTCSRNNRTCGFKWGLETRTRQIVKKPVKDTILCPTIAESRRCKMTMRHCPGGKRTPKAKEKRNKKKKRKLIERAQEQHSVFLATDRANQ
UniProt Q9BXY4: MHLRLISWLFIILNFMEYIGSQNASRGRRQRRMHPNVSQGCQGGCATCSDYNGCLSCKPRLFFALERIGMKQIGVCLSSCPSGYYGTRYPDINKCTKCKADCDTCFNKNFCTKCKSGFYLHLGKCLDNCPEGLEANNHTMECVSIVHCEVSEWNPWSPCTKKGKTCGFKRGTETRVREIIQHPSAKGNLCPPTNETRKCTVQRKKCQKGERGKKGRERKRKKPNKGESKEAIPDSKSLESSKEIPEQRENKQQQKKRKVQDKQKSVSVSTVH

Key:
[1] = biological target: human BMPR1A-HA on HEK293T cells (human) (UniProt P36894); experiment: cell surface binding assay
[2] = biological target: human RSPO2^ΔFU2-flag (human) (UniProt Q6UXX9); experiment: in vitro binding assay

Row | binding [1] | binding [2] | Molecule
1 | binds |  | human RSPO2^ΔC-AP (from UniProt Q6UXX9) (ligand)
2 | binds |  | human RSPO3^ΔC-AP (from UniProt Q9BXY4) (ligand)
3 |  | binds | BMPR1A^ECD-AP (domain or fragment, UniProt P36894 24-152, looked up) QNLDSMLHGTGMKSDSDQKKSENGVTLAPEDTLPFLKCYCSGHCPDDAINNTCITNGHCFAIIEEDDQGETTLASGCMKYEGSDFQCKDSPKAQLRRTIECCRTNLCNQYLQPTLPPVVIGPFFDGSIR
